{"source": "PubChem BioAssay AID686937 (Drosophila RNAi Screening Center, 2013)", "test": "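Genes in the fly needed for secretion of protein constitutively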 (primary screen)", "cells": "Drosophila S2 cells expressing secreted horseradish peroxidase", "reagent": "long dsRNA against Drosophila genes", "duration": "about 5.5 days (5 days dsRNA, then 12 h reporter induction)", "treatment": "reporter expression induced after 5 days of dsRNA, read 12 h later; inducer not stated", "read-out": "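After 5 days of dsRNA and 12 h of reporter induction, medium peroxidase read by chemiluminescence and scored as per-plate z-score; higher values mean more reporter released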", "reading the numbers": "z-score: higher = more reporter secreted into medium", "note": "In all, the deposit lists about 23,000 reagents; shown is an unselected part of those that have a named target and a result. 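Reduced-secretion tags in replicate 1 do not always agree with the z-scores; no criterion for assigning the tags was given.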 Further read-outs or replicates are left out here. Not given: the amount of reagent."}
{"gene": "Keap1", "amplicon": "DRSC15528", "z-score, replicate 1": 0.12}
{"gene": "CG43312", "amplicon": "DRSC11559", "z-score, replicate 1": 0.53}
{"gene": "sn", "amplicon": "DRSC18834", "z-score, replicate 1": 0.35}
{"gene": "CG1537", "amplicon": "DRSC19662", "z-score, replicate 1": 0.36}
{"gene": "deltaCOP", "amplicon": "DRSC18760", "z-score, replicate 1": -6.53, "phenotype, replicate 1": "reduced secretion"}
{"gene": "CG4793", "amplicon": "DRSC01966", "z-score, replicate 1": -0.17}
{"gene": "CG3280 (retired record)", "amplicon": "DRSC10356", "z-score, replicate 1": 0.34}
{"gene": "Trs20", "amplicon": "DRSC10489", "z-score, replicate 1": -2.04, "phenotype, replicate 1": "reduced secretion"}
{"gene": "vnd", "amplicon": "DRSC17360", "z-score, replicate 1": 0.64}
{"gene": "vnd", "amplicon": "DRSC18849", "z-score, replicate 1": -0.11}
{"gene": "vnd", "amplicon": "DRSC22487", "z-score, replicate 1": -0.54}
{"gene": "RpL10", "amplicon": "DRSC11947", "z-score, replicate 1": -3.8, "phenotype, replicate 1": "reduced secretion"}
{"gene": "HP1Lcsd", "amplicon": "DRSC03999", "z-score, replicate 1": 0.65}
{"gene": "fd3F", "amplicon": "DRSC17843", "z-score, replicate 1": -3.35, "phenotype, replicate 1": "reduced secretion"}
{"gene": "CG4853", "amplicon": "DRSC06898", "z-score, replicate 1": 0.45}
{"gene": "CG6885", "amplicon": "DRSC10740", "z-score, replicate 1": 0.39}
{"gene": "ergic53", "amplicon": "DRSC11389", "z-score, replicate 1": 0.06}
{"gene": "CG32121", "amplicon": "DRSC09265", "z-score, replicate 1": 0.45}
{"gene": "CG5790", "amplicon": "DRSC02896", "z-score, replicate 1": 0.03}
{"gene": "smog", "amplicon": "DRSC00334", "z-score, replicate 1": 0.15}
{"gene": "smog", "amplicon": "DRSC00335", "z-score, replicate 1": -0.36}
{"gene": "CG3223", "amplicon": "DRSC15468", "z-score, replicate 1": 0.2}
{"gene": "osy", "amplicon": "DRSC14903", "z-score, replicate 1": -0.29}
{"gene": "osy", "amplicon": "DRSC15979", "z-score, replicate 1": -3.5}
{"gene": "osy", "amplicon": "DRSC15981", "z-score, replicate 1": -0.16}
{"gene": "FASN2", "amplicon": "DRSC00167", "z-score, replicate 1": -0.1}
{"gene": "FASN2", "amplicon": "DRSC00610", "z-score, replicate 1": 0.29}

4 successive reagents from above:
{"gene": "CG32121", "amplicon": "DRSC09265", "z-score, replicate 1": 0.45}
{"gene": "CG5790", "amplicon": "DRSC02896", "z-score, replicate 1": 0.03}
{"gene": "smog", "amplicon": "DRSC00334", "z-score, replicate 1": 0.15}
{"gene": "smog", "amplicon": "DRSC00335", "z-score, replicate 1": -0.36}
